## Percent effect of library compounds

Chains of the proteins cited; added tags and fusions are not shown. Residues count along the entry.
UniProt P9WFT3, whole entry: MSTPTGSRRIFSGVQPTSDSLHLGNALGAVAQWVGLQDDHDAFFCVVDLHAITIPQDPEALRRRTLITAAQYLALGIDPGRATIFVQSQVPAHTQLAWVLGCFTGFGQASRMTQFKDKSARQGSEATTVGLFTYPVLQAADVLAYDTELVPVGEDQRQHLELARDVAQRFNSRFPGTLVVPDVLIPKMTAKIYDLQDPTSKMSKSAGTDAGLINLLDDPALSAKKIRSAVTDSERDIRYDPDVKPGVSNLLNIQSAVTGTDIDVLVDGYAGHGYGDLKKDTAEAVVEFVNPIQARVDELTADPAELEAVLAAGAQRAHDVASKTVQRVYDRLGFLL
UniProt P9WNZ1, whole entry: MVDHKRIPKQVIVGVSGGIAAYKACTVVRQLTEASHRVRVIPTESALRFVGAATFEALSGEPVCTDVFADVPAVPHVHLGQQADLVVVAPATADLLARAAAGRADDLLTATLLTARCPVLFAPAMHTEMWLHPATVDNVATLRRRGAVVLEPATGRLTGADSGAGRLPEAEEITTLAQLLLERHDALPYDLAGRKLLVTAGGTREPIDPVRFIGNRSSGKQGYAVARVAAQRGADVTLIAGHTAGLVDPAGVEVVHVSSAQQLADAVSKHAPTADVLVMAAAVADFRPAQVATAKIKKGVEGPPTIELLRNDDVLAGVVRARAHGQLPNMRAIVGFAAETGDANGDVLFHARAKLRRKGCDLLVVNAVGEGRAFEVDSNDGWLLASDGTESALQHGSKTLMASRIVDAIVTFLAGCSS
UniProt A4I591, 1-473: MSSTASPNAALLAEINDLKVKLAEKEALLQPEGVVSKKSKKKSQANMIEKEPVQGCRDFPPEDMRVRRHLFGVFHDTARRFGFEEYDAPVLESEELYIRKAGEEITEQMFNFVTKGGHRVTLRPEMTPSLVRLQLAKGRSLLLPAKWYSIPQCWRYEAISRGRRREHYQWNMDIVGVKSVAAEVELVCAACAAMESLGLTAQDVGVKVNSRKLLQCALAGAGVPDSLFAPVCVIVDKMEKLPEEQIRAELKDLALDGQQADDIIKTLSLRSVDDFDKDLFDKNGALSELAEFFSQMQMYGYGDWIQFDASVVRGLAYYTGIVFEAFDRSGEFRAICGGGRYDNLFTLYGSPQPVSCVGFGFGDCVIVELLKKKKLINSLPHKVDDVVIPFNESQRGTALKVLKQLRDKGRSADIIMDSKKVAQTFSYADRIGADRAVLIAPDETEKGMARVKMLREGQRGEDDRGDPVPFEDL
UniProt I6X8D2, whole entry: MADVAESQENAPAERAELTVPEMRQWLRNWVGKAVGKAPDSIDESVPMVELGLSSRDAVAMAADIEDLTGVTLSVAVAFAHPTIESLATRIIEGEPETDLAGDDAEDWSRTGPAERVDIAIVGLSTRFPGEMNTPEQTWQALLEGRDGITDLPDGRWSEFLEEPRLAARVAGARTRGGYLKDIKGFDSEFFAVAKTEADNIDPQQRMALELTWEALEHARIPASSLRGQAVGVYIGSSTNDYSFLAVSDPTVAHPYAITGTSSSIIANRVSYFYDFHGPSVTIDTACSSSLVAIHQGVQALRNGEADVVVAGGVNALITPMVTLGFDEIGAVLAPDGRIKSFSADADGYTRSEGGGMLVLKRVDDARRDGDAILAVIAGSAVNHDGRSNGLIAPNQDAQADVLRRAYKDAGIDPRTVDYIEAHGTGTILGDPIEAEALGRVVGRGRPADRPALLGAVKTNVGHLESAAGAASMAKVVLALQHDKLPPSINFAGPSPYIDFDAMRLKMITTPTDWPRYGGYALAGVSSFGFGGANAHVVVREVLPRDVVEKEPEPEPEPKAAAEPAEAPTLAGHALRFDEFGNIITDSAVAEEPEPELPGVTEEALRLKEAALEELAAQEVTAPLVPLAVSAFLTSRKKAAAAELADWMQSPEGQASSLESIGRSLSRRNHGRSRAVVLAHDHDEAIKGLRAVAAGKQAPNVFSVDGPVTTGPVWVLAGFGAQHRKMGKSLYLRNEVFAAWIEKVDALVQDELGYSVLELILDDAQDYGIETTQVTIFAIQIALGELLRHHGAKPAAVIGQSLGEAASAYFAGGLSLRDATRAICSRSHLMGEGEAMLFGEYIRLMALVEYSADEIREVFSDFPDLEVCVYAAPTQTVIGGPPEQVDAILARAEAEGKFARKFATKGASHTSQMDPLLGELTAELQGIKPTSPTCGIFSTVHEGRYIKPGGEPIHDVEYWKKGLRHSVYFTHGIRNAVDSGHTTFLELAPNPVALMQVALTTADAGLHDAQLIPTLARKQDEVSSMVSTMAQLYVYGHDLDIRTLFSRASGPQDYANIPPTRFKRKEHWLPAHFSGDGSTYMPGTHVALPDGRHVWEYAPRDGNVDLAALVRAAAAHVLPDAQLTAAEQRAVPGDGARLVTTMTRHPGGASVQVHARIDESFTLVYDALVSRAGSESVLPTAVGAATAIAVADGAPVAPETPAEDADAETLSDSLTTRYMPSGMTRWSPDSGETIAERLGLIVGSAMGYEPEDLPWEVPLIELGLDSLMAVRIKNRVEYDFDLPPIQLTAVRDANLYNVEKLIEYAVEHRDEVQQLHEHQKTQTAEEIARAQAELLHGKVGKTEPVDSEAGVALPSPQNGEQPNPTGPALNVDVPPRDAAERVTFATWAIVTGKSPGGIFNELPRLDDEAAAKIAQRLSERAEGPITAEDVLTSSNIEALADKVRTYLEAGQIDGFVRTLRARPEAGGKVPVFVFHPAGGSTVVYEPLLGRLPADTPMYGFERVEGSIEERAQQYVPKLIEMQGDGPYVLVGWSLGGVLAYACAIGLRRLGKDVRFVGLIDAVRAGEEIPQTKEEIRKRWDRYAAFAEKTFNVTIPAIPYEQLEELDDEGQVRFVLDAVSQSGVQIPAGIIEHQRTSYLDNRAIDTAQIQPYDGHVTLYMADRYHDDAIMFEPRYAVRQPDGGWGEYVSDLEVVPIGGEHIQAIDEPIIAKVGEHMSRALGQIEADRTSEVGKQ

The filed quantity is “Percent Effect” (%).
The controls that fix the scale are not given in the record; negative values are as filed.
Compounds were drawn at random from those tested, without regard to their results.
A dash means the value is not listed here; it may have been measured.

MtTrpRS: 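Enzyme assay of tryptophanyl-tRNA synthetase; the read-out is not stated. Target: Tryptophan-tRNA ligase, Mycobacterium tuberculosis (UniProt P9WFT3). Tested at 10 µM. Higher most likely means stronger inhibition; the record gives no direction and few retests gave an IC50. Of about 65,000 compounds tested this way, about 64 (0.098%) reached 50% or more in at least one test.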
CoaBC: 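Coenzyme A biosynthesis protein CoaBC, Mycobacterium tuberculosis (UniProt P9WNZ1). Enzyme assay of CoaBC with a phosphate dye (Biomol Green) read at 650 nm. Concentration: 30 µM. Higher reads as stronger inhibition, judged from the few compounds that gave an IC50. Most strong results did not repeat in a second test. About 67,000 compounds were tested under these conditions; 0.06% (about 40) showed 50% or more at least once.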
LiHisRS: 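Enzyme assay of histidyl-tRNA synthetase; the read-out is not stated. Target: Histidine-tRNA ligase, Leishmania infantum (UniProt A4I591). Compounds at 30 µM. Direction is inferred from retests: higher values go with stronger inhibition. The assay is labelled LdHisRS but filed under L. infantum. Of about 69,000 compounds tested this way, about 410 (0.6%) reached 50% or more in at least one test.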
Pks13 thioesterase: 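Polyketide synthase Pks13, Mycobacterium tuberculosis (UniProt I6X8D2). Enzyme assay of the thioesterase domain of polyketide synthase 13; the read-out is not stated. Tested at 30 µM. The record gives no direction; the compounds picked for IC50 retests had high values, so higher reads as stronger inhibition. About 67,000 compounds were tested under these conditions; 0.46% (about 300) showed 50% or more at least once.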

compound	MtTrpRS	CoaBC	LiHisRS	Pks13 thioesterase
CC(=O)NCc1noc2c1CN(CCN1CCCC1)CC2	-0.2907	-	17.09	-18.65
CCOc1ncccc1NC(=O)NCC(O)c1ccc(OC)cc1 (stereo not shown)	23.38	1.05	13.56	-10.48
CC(=O)N1CCC2(CC1)CCN(C(=O)c1ccc(F)c(C(F)(F)F)c1)C2	0.3487	5.882	14.55	-16.53
Cc1cc(C(=O)N2CCC3(CC2)c2nc[nH]c2CCN3CC(C)C)no1	0.4968	-1.107	11.29	-10.07
O=C(NCCCC(=O)N1Cc2ccccc2C1)NCc1ccsc1	8.333	1.266	-1.299	38.92
CN(C)S(=O)(=O)N1CC[C@]2(O)CCN(CCCc3cccnc3)C[C@@H]2C1	4.552	6.446	18.37	-15.16
CN(C(=O)CCN1CCCC1=O)c1cc(C#N)c2ccccc2n1	2.917	7.744	17.2	-9.566
CC(C)N1CCC(c2nccnc2Nc2ncccn2)CC1	-	-1.471	5.208	-30.53
CC1=NN(c2ccc(C(=O)OCCNC(=O)c3ccncc3)cc2)CC1	-3.311	-0.2404	16.67	7.905
CCn1cc(S(=O)(=O)N2CCN(C(=O)c3cc(Br)cs3)CC2)c(C)n1	2.583	7.969	4.301	-
Cc1nc(CN2CCN(C(=O)CCC(=O)c3ccccc3)CC2)no1	12.93	-6.867	4.918	24.03
CN(Cc1ccco1)[C@@H]1CN(Cc2nccn2C)[C@@H]2CCCO[C@H]12	-0.3791	4.079	27	3.374
Cc1cccc(-n2c(C)cc(=O)[nH]c2=O)c1C	0.6221	-5.69	7.609	-8.423
CC(C)c1nncn1CCNC(=O)c1c(O)cc(F)cc1F	3.172	0	18.68	-1.038
COC(=O)c1ccc(C(=O)N2CCCC(Nc3ccc(F)cc3)C2)cc1 (stereo not shown)	-2.246	1.327	15.2	-12.54
Cc1nc2c(c(C)c1CC(=O)Nc1ccc(Cl)cc1)c(=O)[nH]n2C	-0.3552	5.804	10.68	-18
Cc1cc(CN(C)C(=O)NC(C)Cc2ccc(O)cc2)no1 (stereo not shown)	-0.8704	10.33	8	-25.28
Cc1nc([C@@H]2C[C@@H]3CCN(C(=O)Cc4ccsc4)C[C@H]3O2)no1	-0.8629	2.703	3.922	-1.183
Cc1noc(CCNC(=O)NCC(=O)NCc2ccccc2)n1	-2.166	5.533	-4.286	-5.781
COc1ccc(CN2C[C@@H]3CC[C@H](C2)N(Cc2snnc2C)C3)cc1	-2.511	7.212	27.08	-9.564
Cc1noc(C)c1CN1CCC(NC(=O)OC(C)(C)C)CC1	16.21	6.38	13.33	-3.894
CN1CCC/C1=N\S(=O)(=O)c1ccc(NC(=O)c2ccc(Cl)s2)cc1	0.5111	-9.92	17.09	10.75
O=C(Nc1nccs1)NC1CCN(Cc2ccccc2)CC1	-1.07	7.895	13.89	-11.26
Cc1c(CNC(=O)Nc2cccc3c2CCN3C)cnn1C	-2.457	-1.373	15.49	-8.968
CN(Cc1ccccc1NCc1cccnc1)C(=O)c1cccs1	4.918	11.49	21.92	-15.47
CC(=O)N1CCC(C(=O)N(CC(F)F)c2cccc(Cl)c2)CC1	-0.4854	3.828	18.33	-23.25
CNc1oc(COc2ccc3c(c2)OCO3)nc1C#N	-0.6303	1.515	2.632	-3.977
CCOCC1CN(Cc2cnn(C)c2)Cc2c1cnn2CC (stereo not shown)	0.6975	-11.34	0	-11.49
O=C(c1nn(-c2ccccc2F)cc1O)N1CCCCC1	-6.789	0.2551	-1.818	-10.86
O=C1CN(C(=O)c2cc(Cl)ccc2F)c2ccccc2N1	-1.801	-0.978	11.29	-27.26
O=C(NCc1ccccc1CN1CCCC1)Nc1cccnc1	-1.488	3.912	16.13	-10.57
CC(CN1CCCC1)C(=O)N1CCC(c2nccn2CC2CC2)CC1 (stereo not shown)	-1.935	9.595	23.08	-36.84
CC(C)N1CCC2(CC1)C(=O)N(CCN(C)C)c1ccccc12	-	3.589	5.941	-4.499
Cc1cc(NC(=O)NC(C)CN2CCN(c3ccccc3)CC2)on1 (stereo not shown)	1.852	5.449	20.55	-
CC(=O)N1CC2C[C@]2(NC(=O)c2ccco2)C1 (stereo partly shown)	-2.506	-0.7634	19.42	-52.42
O=C(CC1COCCN1C(=O)c1cscn1)c1ccccc1 (stereo not shown)	2.114	4.156	3.226	-16.96

For reference, 3 entries once more:

{"compound": "CN(C)S(=O)(=O)N1CC[C@]2(O)CCN(CCCc3cccnc3)C[C@@H]2C1", "MtTrpRS": 4.552, "CoaBC": 6.446, "LiHisRS": 18.37, "Pks13 thioesterase": -15.16}
{"compound": "CC(CN1CCCC1)C(=O)N1CCC(c2nccn2CC2CC2)CC1", "stereo": "stereo not shown", "MtTrpRS": -1.935, "CoaBC": 9.595, "LiHisRS": 23.08, "Pks13 thioesterase": -36.84}
{"compound": "Cc1nc2c(c(C)c1CC(=O)Nc1ccc(Cl)cc1)c(=O)[nH]n2C", "MtTrpRS": -0.3552, "CoaBC": 5.804, "LiHisRS": 10.68, "Pks13 thioesterase": -18}

Source: ChEMBL document CHEMBL3988442, “University of Dundee, Small-Polar-MMV Screening Library” (2021).